From PMC5335694

Target: T1, mouse Trip13 (aa 1-432) fused to LexA (N-LexA-Trip13-C) (mouse) (UniProt Q3UA06)
T1 sequence: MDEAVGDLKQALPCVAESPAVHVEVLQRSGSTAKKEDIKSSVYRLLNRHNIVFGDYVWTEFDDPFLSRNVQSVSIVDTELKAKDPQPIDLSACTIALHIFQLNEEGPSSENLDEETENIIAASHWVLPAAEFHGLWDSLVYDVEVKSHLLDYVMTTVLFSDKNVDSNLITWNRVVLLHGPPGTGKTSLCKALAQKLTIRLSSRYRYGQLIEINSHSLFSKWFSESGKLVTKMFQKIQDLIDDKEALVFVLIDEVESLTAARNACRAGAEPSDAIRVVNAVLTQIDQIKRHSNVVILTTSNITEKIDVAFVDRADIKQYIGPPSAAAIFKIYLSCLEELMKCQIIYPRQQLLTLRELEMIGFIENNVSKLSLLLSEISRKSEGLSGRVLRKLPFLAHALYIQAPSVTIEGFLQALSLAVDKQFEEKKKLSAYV
Assay: two-hybrid; LexA-Trip13 (1-432) bait screened against a random-primed mouse kidney cDNA library in pP6 by mating; selection on medium lacking Trp, Leu, His with 50 mM 3-aminotriazole

binding: binds
Substance: tetratricopeptide domain 5 (TTC5), prey from a mouse kidney cDNA library (domain or fragment)

No constants are given. Whether binding was seen depends on the method and setting. Binding can be weak; no strength is given. Tags and fused reporters may be left off the sequences shown.
